In article PMC7304647:
These are yes or no findings as the source states them, for the method shown. For part of these data: In cells and extracts the contact can be indirect. Some binding calls cover weakened binding; strength is not graded here.

T1: AtSCC4 (BiFC construct) (Arabidopsis) (UniProt Q9FGN7)
T1 sequence: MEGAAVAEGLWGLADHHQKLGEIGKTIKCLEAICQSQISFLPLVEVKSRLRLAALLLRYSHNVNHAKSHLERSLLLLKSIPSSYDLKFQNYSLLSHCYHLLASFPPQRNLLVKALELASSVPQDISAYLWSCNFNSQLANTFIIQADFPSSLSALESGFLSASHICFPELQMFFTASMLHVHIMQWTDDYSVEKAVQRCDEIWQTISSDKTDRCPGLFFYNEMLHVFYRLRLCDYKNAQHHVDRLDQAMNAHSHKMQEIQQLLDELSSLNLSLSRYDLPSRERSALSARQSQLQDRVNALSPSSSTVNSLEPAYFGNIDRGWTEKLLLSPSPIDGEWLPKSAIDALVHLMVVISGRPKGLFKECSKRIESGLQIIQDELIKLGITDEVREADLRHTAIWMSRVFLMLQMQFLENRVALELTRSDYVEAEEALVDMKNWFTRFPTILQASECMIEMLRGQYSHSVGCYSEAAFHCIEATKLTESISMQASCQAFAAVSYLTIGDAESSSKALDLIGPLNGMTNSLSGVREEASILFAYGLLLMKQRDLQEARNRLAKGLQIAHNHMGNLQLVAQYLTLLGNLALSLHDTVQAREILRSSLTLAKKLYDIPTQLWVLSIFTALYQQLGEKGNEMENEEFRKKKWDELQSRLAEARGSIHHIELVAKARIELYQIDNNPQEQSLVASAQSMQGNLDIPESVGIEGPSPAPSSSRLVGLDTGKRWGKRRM

T2: AtSCC4 (yeast two-hybrid construct) (Arabidopsis) (UniProt Q9FGN7)
T2 sequence: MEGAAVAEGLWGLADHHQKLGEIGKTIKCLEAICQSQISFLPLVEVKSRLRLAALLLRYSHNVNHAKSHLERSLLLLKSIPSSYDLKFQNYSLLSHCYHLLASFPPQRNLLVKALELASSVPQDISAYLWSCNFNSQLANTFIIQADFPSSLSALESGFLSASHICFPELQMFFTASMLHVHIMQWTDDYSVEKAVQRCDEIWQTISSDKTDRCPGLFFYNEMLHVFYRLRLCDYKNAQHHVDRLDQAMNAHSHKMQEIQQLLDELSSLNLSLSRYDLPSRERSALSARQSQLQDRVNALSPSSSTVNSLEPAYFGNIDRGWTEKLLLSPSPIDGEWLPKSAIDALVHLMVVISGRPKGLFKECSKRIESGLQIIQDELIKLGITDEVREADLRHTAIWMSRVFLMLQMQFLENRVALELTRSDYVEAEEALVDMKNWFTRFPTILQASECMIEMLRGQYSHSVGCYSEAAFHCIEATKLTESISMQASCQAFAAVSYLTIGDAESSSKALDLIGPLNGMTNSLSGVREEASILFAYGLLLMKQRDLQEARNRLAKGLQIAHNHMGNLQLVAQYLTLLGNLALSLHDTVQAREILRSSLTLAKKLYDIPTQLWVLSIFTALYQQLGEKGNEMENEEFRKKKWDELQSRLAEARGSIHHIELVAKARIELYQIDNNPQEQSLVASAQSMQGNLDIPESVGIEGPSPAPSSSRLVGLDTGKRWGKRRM


Legend:
[1] = target: T1, AtSCC4 (BiFC construct) (Arabidopsis); experiment: split reporter; bimolecular fluorescence complementation (BiFC) in tobacco cells
[2] = target: T2, AtSCC4 (yeast two-hybrid construct) (Arabidopsis); experiment: two-hybrid; yeast two-hybrid of AtSCC2 N-terminal constructs with AtSCC4; bait and prey not told

binding [1] | binding [2] | Molecule
binds |  | AtSCC2 (BiFC construct) (from UniProt A5HEI1 1-1846)
 | no binding | AtSCC2N2 (255–427 aa) (domain or fragment, UniProt A5HEI1 255-427) RAEVPGDDRDEAEWSSVPVDEVRVLINELMTIRSKMLLHMVPVDILSRLLRTLDHQIHRAEGLSIYSEHSDSDSVLLVLGALESIHASLAVMANSDMPKQLYKEEIIERILEFSRHQMMAVMSAYDPSYRTGSKPAENLAFEGDDDDDNPDHDMGSASKRRRIVKNSKVKKAS
 | binds | AtSCC2N1 (1–254 aa) (domain or fragment, UniProt A5HEI1 1-254) MSNPSSSGLGSSSGLTHFGIGLANTVQSEVTPYLPLPSLPIFCGAAEPGEFKLFDEVGQGSGYRSLDRSEILAQSSRIANMLHETDVSYLDLRNEARAPDCNSGEHFQLYDLVLRCNPGAFEYVTPGPTCDPLFTNEGPQKIISEPSVPVKMQRQTDTHLARSIEPEPVKRVLRPNHVEDHSWQHETLTNQSPKDVTAYDSRPETITMNELSASKKPKGKKKRKDDLSSVQPDPSVLQESIVQNFCEMLEDFCG
